Reference: article PMC3139607

How the values were obtained:
[1] = biological target: membrane CD4 on PM-1 cells pre-treated with recombinant gp120 Ba-L (human (endogenous in PM-1) | HIV-1 isolate Ba-L); assay: flow cytometry on cells; 500,000 cells per sample, 20 min on ice with 1 µg MAb; fluorescein-conjugated anti-mouse IgG; PM-1 cells treated or not with recombinant gp120; RK13 cells expressing Ba-L Env treated or not with 2D-CD4 or CD4-M3; only the binder purified
[2] = biological target: two-domain (2D) soluble CD4 (amino acids 1 to 183) (human); assay: ELISA; solid-phase 2D-sCD4 (2 µg/ml coating) alone or in equimolar complex with recombinant gp120 (Ba-L or IIIB), complexes pre-formed in ice for 20 min; MAb DB81 in solution; phosphatase-conjugated anti-mouse IgG; incubations 1 h at 20°C (Figure S2); both purified

B1: MAb DB81 (antibody, V domains shown)
VH: EVQLQQSGPELVKPGASVKISCKASGYSFTDYTMLWVKQSHGKSLEWIGNINPYYDTTTYNLNFKGKATMTVDKSSSTAYMQLNSLTSEDSAVYYCAREGDYGHPFAYWGQGTLVTVSS
VL: DIVMTQSHKFMSTSVGDRVSITCKASQDVSTTVAWYQQKPGQSPKLLIYSASYRYTGVPDRFTGSGSGTDFTFTISSVQAEDLAVYYCQQHYSTPPTFGGGTKLEIR
Q: With B1 as the binder, how does the binding [1] read?
A: binds

Q: And the binding [2]?
A: binds

These are yes or no findings as the source states them, for the method shown. A result given as binding can be weak or reduced; the word gives no strength.
